Experimental data as given in paper PMC6770789.
No constants are given. Whether binding was seen depends on the method and setting. In cells and extracts the contact can be indirect. Some results given as binding are weak or reduced against the parent protein; the word gives no strength. One block for each substance: values may come before it.

Amino acid sequences for entries named in this document (tags omitted). A change or cut given only in a name is not applied to a line headed by its entry.
UniProt Q15672: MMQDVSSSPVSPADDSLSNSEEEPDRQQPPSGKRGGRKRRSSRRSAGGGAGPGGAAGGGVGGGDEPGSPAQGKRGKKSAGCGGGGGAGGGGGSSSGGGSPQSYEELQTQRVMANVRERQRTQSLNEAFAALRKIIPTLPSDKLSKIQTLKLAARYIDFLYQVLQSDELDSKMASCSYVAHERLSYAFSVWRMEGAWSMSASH
UniProt P15923: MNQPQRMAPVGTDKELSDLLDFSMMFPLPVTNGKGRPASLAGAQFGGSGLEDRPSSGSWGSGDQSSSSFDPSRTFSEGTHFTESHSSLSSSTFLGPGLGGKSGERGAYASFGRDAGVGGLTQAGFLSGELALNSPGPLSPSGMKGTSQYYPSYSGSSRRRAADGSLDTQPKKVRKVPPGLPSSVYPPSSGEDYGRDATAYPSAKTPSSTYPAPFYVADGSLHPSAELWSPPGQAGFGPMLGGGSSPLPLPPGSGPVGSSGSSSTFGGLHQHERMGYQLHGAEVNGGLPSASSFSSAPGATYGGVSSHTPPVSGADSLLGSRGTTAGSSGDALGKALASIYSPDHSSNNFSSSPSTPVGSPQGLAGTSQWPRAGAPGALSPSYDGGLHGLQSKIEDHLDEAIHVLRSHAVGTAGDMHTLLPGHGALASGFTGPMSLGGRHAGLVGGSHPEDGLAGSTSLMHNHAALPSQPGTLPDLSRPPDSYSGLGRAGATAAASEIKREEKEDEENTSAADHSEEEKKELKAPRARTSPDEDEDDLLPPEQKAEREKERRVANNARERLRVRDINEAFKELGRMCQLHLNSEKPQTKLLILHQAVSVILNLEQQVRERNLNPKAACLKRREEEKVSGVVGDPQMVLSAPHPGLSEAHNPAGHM

How the values were obtained:
[1] = biological target: TW(S68A)-NTAP (TWIST1 S68A fused to the NTAP tag) (UniProt Q15672); test: co-IP; affinity purification of TW(S68A)-NTAP on rabbit immunoglobulin agarose from cytoplasmic and nuclear fractions of cells co-transduced with TW(S68A)-NTAP and TW(S68A)-HA; blot with HA antibody
[2] = biological target: TWIST1 wild type, overexpressed from pLXSN (UniProt Q15672); test: co-IP; nuclear extracts (diluted to 150 mM NaCl) of T98G cells stably transduced with E12 (pLXSH) and TW or TW(S68A) (pLXSN); IP with TW antibody, blot for E12; non-specific IgG control
[3] = biological target: TW-NTAP (TWIST1 fused to the NTAP tag) (UniProt Q15672); test: co-IP; affinity purification (AP) of NTAP-tagged TW from nuclear extracts of T98G cells on agarose beads conjugated with rabbit immunoglobulin, overnight; co-purified endogenous proteins detected by Western blot
[4] = biological target: TWIST1 (TW), endogenous (human (endogenous in T98G)) (UniProt Q15672); test: co-IP; endogenous proteins of T98G cells; reciprocal IP with mouse E12 and TW antibodies, blot with rabbit antibodies; also IP with pTW S68 antibody, blot with mouse E12 antibody; same-isotype non-specific IgG as control; 150 mM NaCl
[5] = biological target: TWIST1 phosphorylated at serine 68, endogenous (human (endogenous in T98G)) (UniProt Q15672); test: as above

binding [1]: binds
Substance: TW(S68A)-HA (HA tagged TWIST1 S68A) (from UniProt Q15672 1-202)

binding [2]: binds
Substance: E12 monomer, overexpressed from pLXSH (from UniProt P15923 1-654)

binding [3]: binds | binding [4]: binds | binding [5]: binds
Substance: E12 bHLH transcription factor, endogenous (from UniProt P15923 1-654)
